Results published in US20090005437A1, “Alpha-Ketoglutarates and Their Use as Therapeutic Agents” (priority 2004, published 2009).
For some assays here: For at least one compound, name, drawing or mass did not settle the structure. Some of these results come from one statement about several compounds together.

What was measured:
HEK293 cells = test: Measurement of intracellular α-ketoglutarate (glutamate dehydrogenase assay); assay type: cell-based, human; details: 1 mM, 5 hours, basal level approximately 100 μM
[1] = tested on: PHD (HIFα prolyl hydroxylase); test: In vitro PHD activity (hydroxylation of in vitro-translated HA-ODDD by cell extracts, gel shift on SDS-PAGE); assay type: biochemical, human; details: cell extracts with α-ketoglutarate, Fe2+, ascorbate; DFO 5 mM; succinate 0.1-5.0 mM

O=C(O)CCC(=O)C(=O)OCc1cccc(C(F)(F)F)c1 [TFMB-α-ketoglutarate, 2-Oxopentanedioic acid 1-(3-trifluoromethyl-benzyl)ester]
Intracellular α-ketoglutarate level (HEK293 cells): 350 to 400 µM

CC(=O)N(O)CCCCCNC(=O)CCC(=O)N(O)CCCCCNC(=O)CCC(=O)N(O)CCCCCN [DFO, Deferoxamine]
PHD activity in vitro (production of hydroxylated HA-ODDD, mobility on SDS-PAGE) [1]: inhibited PHD activity in vitro
